In US20260117070A1 (HELMHOLTZ ZENTRUM MÜNCHEN DEUTSCHES FORSCHUNGSZENTRUM FÜR …, priority 2022, published 2026):

Experiments:
[1] = general procedure: Fmoc solid-phase peptide synthesis; 2-chlorotrityl chloride resin; HATU/DIPEA (manual); conditions: oxidative folding step
[2] = general procedure: Fmoc solid-phase peptide synthesis; Rink Amide AM resin LL (0.40 mmol/g); 2-chlorotrityl chloride resin (1.5-1.9 mmol/g); DHP HM resin (1.17 mmol/g); HATU/DIPEA (manual); conditions: conjugation step
[3] = general procedure: Fmoc solid-phase peptide synthesis; DHP-HM resin; HATU/DIPEA (manual); conditions: oxidative folding step

## (1-azido-13-oxo-3,6,9-trioxa-12-azahexadecan-16-oyl)-phe-cyclo(Cys-Tyr-trp-Lys-Thr-Cys)-Thr-OH
[1]
  difficulty met: Cyclized peptide tate2 (X) was obtained a's a white solid. Low yield was accepted in favor of purity.

## XYSTEVVALSRLQ
[2]; run 1
  conjugation yield: 57%
[2]; run 2
  conjugation yield: 60%

## (1-azido-13-oxo-3,6,9-trioxa-12-azahexadecan-16-oyl)-phe-cyclo(Cys-Tyr-trp-Lys-Thr-Cys)-Thr(ol)
[3]
  difficulty met: Cyclized peptide toc4 (X) was obtained a's a white solid. Low yield was accepted in favor of purity.

## (1-azido-13-oxo-3,6,9-trioxa-12-azahexadecan-16-oyl)-trp-cyclo(Cys-Thr-phe-Thr-Tyr-Cys)-Lys(ol)
[3]
  difficulty met: Cyclized peptide toc6 (X) was obtained a's a white solid. Low yield was accepted in favor of purity.
